Measurements as given in US20240108662A1, “ENGINEERED CELLS FUNCTIONALIZED WITH IMMUNE CHECKPOINT MOLECULES AND USES THEREOF” (The University of North Carolina at Chapel Hill, priority 2020, published 2024).

B1: Q5XJY4 (protein, UniProt Q5XJY4 1-377, looked up)
chain: MALQGWVQRGWRCGPAWAPPLGGGYRELSATQAPRLLGRRFNLFVQQKCGFRKAPRKVEPRRSDTGSSGEAYKRSALIPPLEETVFYPSPYPIRTLVKPFFFTIGFTGCAFGSAAIWQYESLKSRVQSYFDGIKADWLDSIRPQKEGNLRKEINKWWNSLSDGQRTVTGIIAANALVFCLWRVPSLQRTMIRYFTSNPASKVLCSPMLLSTFSHFSLFHMAANMYVLWSFSSSIVNILGQEQFVAVYLSAGVISNFVSYVCKVATGRYGPSLGASGAIMTVLAAVCTKIPEGRLAIIFLPVFTFTAGNALKAIIAMDTAGMILGWKFFDHAAHLGGALFGIWYITYGHELIWKNREPLVKIWHEIRTNGPKKGGGSK
modifications: full-length
B2: P55937 (protein, UniProt P55937 1-1487, looked up)
chain: MDGASAKQDGLWESKSSSDVSSCPEASLETVGSLARLPDQQDTAQDASVEVNRGFKEEGSPDRSSQVAICQNGQIPDLQLSLDPTTSPVGPDASTGVDGFHDNLRNSQGTSAEGSVRKEALQSLRLSLPMQETQLCSTASSLPLEKEEQVRLQARKRLEEQLMQYRVKRHRERSSQPATKMKLFSTLDPELMLNPENLPRASTVAVTKEYSFLRTSVPRGPKVGSLGLLAHSKEKKNSKSSKIRSLADYRTEDPSDSGGLGSTADAVGSSLKQSRSSTSVVSEVSPSSETDNRVESASMTGDSVSEADGNESDSSSHSSLSARGACGVLGNVGMPGTAYMVDGQEISAEALGQFPSIKDVLQAAAAQHQDQNQEANGEVRSRRDSICSSVSMESSLAEPQDELLQILKDKRRLEGQVEALSLEASQALQEKAELQAQLAALSTRLQAQVEHSHSSQQKQDSLSSEVDTLKQSCWDLGRAMTDLQSMLEAKNASLASSNNDLQVAEEQYQRLMAKVEDMQRNILSKDNTVHDLRQQMTALQSQLQQVQLERTTLTSKLQASQAEITSLQHARQWYQQQLTLAQEARVRLQGEMAHIQVGQMTQAGLLEHLKLENVSLSHQLTETQHRSIKEKERIAVQLQSIEADMLDQEAAFVQIREAKTMVEEDLQRRLEEFEGEREQLQKVADAAASLEQQLEQVKLTLFQRDQQLAALQQEHLDVIKQLTSTQEALQAKGQSLDDLHTRYDELQARLEELQREADSREDAIHFLQNEKIVLEVALQSAKSDKEELDRGARRLEEDTEETSGLLEQLRQDLAVKSNQVEHLQQETATLRKQMQKVKEQFVQQKVMVEAYRRDATSKDQLINELKATKKRLDSEMKELRQELIKLQGEKKTVEVEHSRLQKDMSLVHQQMAELEGHLQSVQKERDEMEIHLQSLKFDKEQMIALTEANETLKKQIEELQQEAKKAITEQKQKMKRLGSDLTSAQKEMKTKHKAYENAVSILSRRLQEALASKEATDAELNQLRAQSTGGSSDPVLHEKIRALEVELQNVGQSKILLEKELQEVITMTSQELEESREKVLELEDELQESRGFRRKIKRLEESNKKLALELEHERGKLTGLGQSNAALREHNSILETALAKREADLVQLNLQVQAVLQRKEEEDRQMKQLVQALQVSLEKEKMEVNSLKEQMAAARIEAGHNRRHFKAATLELSEVKKELQAKEHLVQTLQAEVDELQIQDGKHSQEIAQFQTELAEARTQLQLLQKKLDEQMSQQPTGSQEMEDLKWELDQKEREIQSLKQQLDLTEQQGKKELEGTQQTLQTIKSELEMVQEDLSETQKDKFMLQAKVSELKNNMKTLLQQNQQLKLDLRRGAAKKKEPKGESNSSSPATPIKIPDCPVPASLLEELLRPPPAVSKEPLKNLNNCLQQLKQEMDSLQRQMEEHTITVHESLSSWAQVEAAPAEHAHPRGDTKLHNQNSVPRDGLGQ
modifications: full-length
B3: Q8BHD7 (protein, UniProt Q8BHD7 1-523, looked up)
chain: MNSSTSAGVYANGNDNKKFKGDRPPCSPSRVLHLRKIPCDVTEAEVISLGLPFGKVTNLLMLKGKSQAFLEMASEEAAVTMINYYTPVTPHLRSQPVYIQYSNHRELKTDNLPNQARAQAALQAVSAVQSGNLSLPGATANEGTLLPGQSPVLRIIIENLFYPVTLEVLHQIFSKFGTVLKIITFTKNNQFQALLQYADPVNAQYAKMALDGQNIYNACCTLRIDFSKLTSLNVKYNNDKSRDFTRLDLPTGDGQPSLEPPMAAAFGAPGIMSSPYAGAAGFAPAIAFPQAAGLSVPAVPGALGPLTLTSSAVSGRMAIPGASGMPGNSVLLVTNLNPDFITPHGLFILFGVYGDVHRVKIMFNKKENALVQMADASQAQLAMNHLSGQRLYGKVLRATLSKHQAVQLPREGQEDQGLTKDFSNSPLHRFKKPGSKNFQNIFPPSATLHLSNIPPSVTMDDLKNLFTEAGCSVKAFKFFQKDRKMALIQLGSVEEAIQALIELHNHDLGENHHLRVSFSKSTI
modifications: full-length
B4: Q569Z6 (protein, UniProt Q569Z6 1-951, looked up)
chain: MSKTNKSKSGSRSSRSRSASRSRSRSFSKSRSRSRSVSRSRKRRLSSRSRSRSYSPAHNRERNHPRVYQNRDFRGHNRGYRRPYYFRGRNRGFYPWGQYNRGGYGNYRSNWQNYRQAYSPRRGRSRSRSPKRRSPSPRSRSHSRNSDKSSSDRSRRSSSSRSSSNHSRVESSKRKSTKEKKSSSKDSRPSQAAGDNQGDEAKEQTFSGGTSQDIKGSESSKPWPDATTYGAGSASRASVSDLSPRERSPALKSPLQSVVVRRRSPRPSPVPKPSPPLSNASQMGSSMSGGAGYQSGAHQGQFDHGSGSLSPSKKSPVGKSPPATGSAYGSSQKEESAASGGAAYSKRYLEEQKTENGKDKEQKQTNADKEKLKEKGGFSDADVKMKSDPFAPKTDSEKPFRGSQSPKRYKLRDDFEKKMADFHKEELDEHDKDKSKGRKEPEFDDEPKFMSKVIAGASKNQEEEKSGKWESLHTGKEKQRKAEEMEDEPFTERSRKEERGGSKRSESGHRGFVPEKNFRVTAYKAVQEKSSSPPPRKTSESRDKLGSKGDFSSGKSSFSITREAQVNVRMDSFDEDLARPSGLLAQERKLCRDLVHSNKKEQEFRSIFQHIQSAQSQRSPSELFAQHIVTIVHHVKEHHFGSSGMTLHERFTKYLKRGNEQEAAKNKKSPEIHRRIDISPSTFRKHGLTHEELKSPREPGYKAEGKYKDDPVDLRLDIERRKKHKERDLKRGKSRESVDSRDSSHSRERSTEKTEKTHKGSKKQKKHRRARDRSRSSSSSSQSSHSYKAEEYPEEAEEREESTSGFDKSRLGTKDFVGPNERGGRARGTFQFRARGRGWGRGNYSGNNNNNSNNDFQKRSREEEWDPEYTPKSKKYYLHDDREGEGSDKWMGRGRGRGAFPRGRGRFMFRKSSTSPKWAHDKFSGEEGEIEDDESGTENREEKDSLQPSAE
modifications: full-length
B5: Q9ERG0 (protein, UniProt Q9ERG0 1-753, looked up)
chain: MESTPFNRRQWTSLSLRVTAKELSLVNKNKSSAIVEIFSKYQKAAEEANMERKKNNPESLPQHFRRGTLSVLKKKWENPVAGAEFHTDSLPNSSSEGGHTADYPPAEVTDKPAPGVRADREEHTQPKPRFGSRPEAVIQSRYPRSENSHDFKAQATESQKMENCLGDSRHEAEKPETSENTETSGKIEKYNVPLNRLKMMFEKGEHNQTKSLWTQSRNAGGRRLSENNCSLDDWEIGAGHLSSSAFNSEKNESKRNLELPRLSETSIKDRMAKYQAAVSKQSSPASYTNELKTSESKTHKWEQKENVPPGPEACSVHQEGSKVSTTENSLVALSVPAEDDTCNSQVKSEAQQPMHPKPLSPDARTSSLPESSPSKTAKKFQAPAKESCVECQKTVYPMERLLANQQVFHISCFRCSYCNNKLSLGTYASLHGRIYCKPHFNQLFKSKGNYDEGFGHKQHKDLWASKSDNEETLGRPAQPPNAGESPHSPGVEDAPIAKVGVLAASMEAKASSQREREDKPAETKKLRIAWPPPAELGGSGSALEEGIKVSKPKWPPEDDVCKTEAPEDVDLDLKKLRRSSSLKERSRPFTVAASFRTSSIKSPKASSPSLRKGWSESEQSEEFGGGIATMERKQTENARPSGEKENVGKSRWQGEEVPRSKDRSSFELESENFMENGANIAEDDNHVHAQQSPLEPEAPGWSGFVDTTAAKEFTTQNQKSQDVGFWEGEVVRELSVEEQIKRNRYYDEDEDEE
modifications: full-length
B6: Q91XB7 (protein, UniProt Q91XB7 1-293, looked up)
chain: MAYHSAYGVHGSKHRTRAAPDPPPLFDDTSGGYSSQLGGYPAPGADVAFSVNNLLGDPVANMAMAYGTSIASQGKDIVHKELHRFVSVNKLKYFFAVDTAYVAKKLGLLVFPYTHQNWKMQYSHDVPLPPRKDLNAPDLYIPTMAFITYVLLAGMALGIQQRFSPEVLGLCASTALVWVFMEVLALLLGLYLATVRSELSTFHLLAYSGYKYVGMILSVLTGLLFGSDGYYVALAWTSSALMYFIVRSLRTAASGPDSMGGPAPRQRLQLYLTLGAAAFQPLIIYWLTFHLVR
modifications: full-length
B7: Q8CI11 (protein, UniProt Q8CI11 1-538, looked up)
chain: MKRPKLKKASKRMTCHKRYKIQKKVREHHRKLRKEAKKRGHKKPRKDPGVPNSAPFKEALLREAELRKQQLEELKQQQKLDRQKEQERKRKLEVSPGDEQSNVETREESDEPKRKKAKAGKQNPKKLHCQELKKVIEASDIVLEVLDARDPLGCRCPQIEEAVIQSGSKKLILVLNKSDLVPKENLENWLNYLNKELPTVVFKASTNLKNRKTFKIKKKKVVPFQSKICCGKEALWKLLGDFQQSCGKDIQVGVIGFPNVGKSSVINSLKQEWICNVGISMGLTRSMQIVPLDKQITIIDSPCLIISPCNSPTALALRSPASIEELRPLEAASAILSQADNEQVVLKYTVPEYKDSLHFFTKLAQRRGLHQKGGSPNVESAAKLVWSEWTGASLGYYCHPPASWNHSLHFNENIAAVMKKGFNLEELEKNNAHSIQVLKGPHLTNRILFRSSGLTNGILDEKDIVEESPRQTEDKQDADDQENGSGERNAEISDVAPVEETRELSPEQSTAGKPSDGSSALDRASQEDETYDFTTDYI
modifications: full-length
B8: P57791 (protein, UniProt P57791 1-329, looked up)
chain: MAALGGDGLRLLSVSRPERQPESAALSGPGSGLCCWVSVFSCFSLACSYVGSLYVWKSELPRDHPAVIKRRSTSVLVVSSLSPLCVLLWRELTGIQPGTSLLTLMGFRLEGIFPAALLPLLLTMILFLGPLMQLSMDCPCDLTDGLKVVLAPRSWARCLTDMRWLRNQVIAPLTEELVFRACMLPMLAPCTGLGPAVFTCPLFFGVAHFHHIIEQLRFRQSSVGSIFVSAAFQFSYTAVFGAYTAFLFIRTGHLIGPVLCHSFCNYMGFPAVCAALEHPQKWPLLAGYALGVGLFLLLLQPLTDPKLYGSLPLCMLLERTGASETLLCS
modifications: full-length

Test: Proteomic analysis of native murine pancreata and decelled pancreatic ECM (Table 1)
Design: species or system mouse
Conditions: for Pancreatic ECM: Mean of log2(intensities): abundance of the listed protein in decelled pancreatic ECM; for Native pancreas tissue: Mean of log2(intensities): abundance of the listed protein in native murine pancreas tissue

| Molecule | Pancreatic ECM: Mean of log2(intensities) [a.u.] | Native pancreas tissue: Mean of log2(intensities) [a.u.] |
| --- | --- | --- |
| B1 | 25.07 | 22.03 |
| B2 | 25.70 | 22.68 |
| B3 | 25.41 | 22.40 |
| B4 | 25.65 | 22.61 |
| B5 | 24.71 | 21.70 |
| B6 | 25.24 | 22.23 |
| B7 | 24.78 | 21.75 |
| B8 | 24.73 | 21.69 |
